These are yes or no findings as the source states them, for the method shown. Binding seen in cells or lysates may run through a third protein. Some binding calls cover weakened binding; strength is not graded here.
Biological target: Methyl-CpG-binding protein 2 (MECP2) (human (endogenous in hiPSC-derived neurons)) (UniProt P51608)
Test: co-IP; nuclear lysate of human wild-type neurons probed with IgG or an antibody against MECP2, incubated two hours, precipitated with protein-A beads; western blot with an antibody against PARP1

Amino acid sequences for entries named in this document (tags omitted).
UniProt P51608: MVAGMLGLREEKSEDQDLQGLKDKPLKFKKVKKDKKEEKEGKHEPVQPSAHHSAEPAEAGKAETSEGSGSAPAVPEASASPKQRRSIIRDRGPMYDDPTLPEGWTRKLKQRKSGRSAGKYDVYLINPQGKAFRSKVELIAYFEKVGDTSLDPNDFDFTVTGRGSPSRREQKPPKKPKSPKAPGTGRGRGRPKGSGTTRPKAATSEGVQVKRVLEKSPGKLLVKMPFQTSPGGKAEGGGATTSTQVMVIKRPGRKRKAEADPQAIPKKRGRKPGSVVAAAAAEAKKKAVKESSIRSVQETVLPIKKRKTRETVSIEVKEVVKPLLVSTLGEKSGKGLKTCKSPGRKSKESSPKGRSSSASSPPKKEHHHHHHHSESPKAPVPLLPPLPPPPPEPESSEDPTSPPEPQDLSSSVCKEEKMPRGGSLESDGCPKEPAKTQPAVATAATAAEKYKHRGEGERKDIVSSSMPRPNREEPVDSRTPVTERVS
UniProt P09874: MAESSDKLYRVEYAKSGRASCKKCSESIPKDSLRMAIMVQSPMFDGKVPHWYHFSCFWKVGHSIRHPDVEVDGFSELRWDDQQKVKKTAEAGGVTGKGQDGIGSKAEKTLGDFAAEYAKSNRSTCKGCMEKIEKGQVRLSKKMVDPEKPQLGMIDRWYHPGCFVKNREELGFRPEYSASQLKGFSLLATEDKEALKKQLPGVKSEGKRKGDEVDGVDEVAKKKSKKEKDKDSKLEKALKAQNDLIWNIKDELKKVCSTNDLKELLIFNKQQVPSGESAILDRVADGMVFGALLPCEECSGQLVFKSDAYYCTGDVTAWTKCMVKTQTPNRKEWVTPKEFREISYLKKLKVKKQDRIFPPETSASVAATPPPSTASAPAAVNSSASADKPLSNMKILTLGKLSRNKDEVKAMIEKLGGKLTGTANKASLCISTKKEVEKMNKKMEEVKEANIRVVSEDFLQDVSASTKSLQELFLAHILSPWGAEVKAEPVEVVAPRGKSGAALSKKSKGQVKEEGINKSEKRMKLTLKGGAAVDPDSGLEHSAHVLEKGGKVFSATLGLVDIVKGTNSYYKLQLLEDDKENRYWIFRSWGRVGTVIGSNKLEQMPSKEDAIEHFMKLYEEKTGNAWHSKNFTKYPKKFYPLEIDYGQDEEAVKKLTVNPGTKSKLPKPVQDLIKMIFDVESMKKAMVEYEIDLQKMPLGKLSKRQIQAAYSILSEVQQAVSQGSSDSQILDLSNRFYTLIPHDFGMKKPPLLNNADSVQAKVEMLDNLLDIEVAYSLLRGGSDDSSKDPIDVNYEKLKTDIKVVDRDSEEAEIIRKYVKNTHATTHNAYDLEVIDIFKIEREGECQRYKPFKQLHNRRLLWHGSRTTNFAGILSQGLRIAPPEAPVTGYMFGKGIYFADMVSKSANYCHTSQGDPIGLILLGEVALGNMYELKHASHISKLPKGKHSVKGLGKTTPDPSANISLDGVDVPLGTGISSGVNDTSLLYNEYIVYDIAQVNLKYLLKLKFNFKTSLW

**Q.** How did the binding turn out when “PARP1 (from UniProt P09874 1-1014) (enzyme)” was run?
**A.** The binding was “binds”.
